The record followed here is patent US20160331708A1 (priority 2014, published 2016).

The structures appear in SMILES notation.

This experiment has as its system Bacillus subtilis 168. The experiment in a line: Antibiotic MIC tests in microtiter plates. Particulars: antibiotic against B. subtilis in the presence of anthranilic acid (2.2 mM).

In the case of `CC1=C(C(=O)O)N2C(=O)[C@@H](NC(=O)[C@H](N)c3ccccc3)[C@H]2SC1` [Cephalexin (1H2O), Cephalexin], the “MIC with anthranilic acid (2.2 mM)” value was 0.061 mg/L.
